Assays:
Test in all cases: microarray analysis
Format in all cases: cell-based, human
[1] = test system: HCT-116
Procedure: (§1) Microarrays. A total of 0.5×10^6 tumor cells (HCT-116, HT-29, KM12C) were plated in a 6-well plate and allowed to adhere overnight before 24-hour treatment, as indicated. Then, 1×10^6 immune cells (NK92, TALL-104) were plated and treated with elraglusib as indicated for twenty-four h. RNA was isolated from cell pellets in batches of six using a RNeasy Plus Mini Kit (Cat #74134, Qiagen, Hilden, Germany). Acceptable RNA concentration and quality were verified with Nanodrop and Bioanalyzer measurements. GeneChip™ Human Transcriptome Array 2.0 assays were conducted according to manufacturer instructions in two batches using randomized samples to limit batch effects (Cat #902162, Applied Biosystems, Waltham, MA, USA). Applied Biosystems Transcriptomic Analysis Console (TAC) software (RRID: SCR_016519) was used to calculate fold changes in gene expression relative to the untreated control cells. Values were considered statistically significant for p values<0.05.
(§2) The inventors then utilized microarray analysis to gain insights into gene expression changes in colorectal cancer cell lines post-GSK-3 inhibition with elraglusib. Several colorectal cancer cell lines (HCT-116, HT-29, KM12C) were treated with elraglusib at IC-50 concentrations or DMSO as vehicle control for twenty-four hours. Treated versus untreated samples were compared in triplicate using microarray analysis FIG. 10. Results were calculated using a fold change (FC) cutoff of >1.5, <−1.5, and a minimum p-value of<0.05. HCT-116 cells had 340 differentially expressed genes post-treatment. FIG. 2C.

[2] = test system: KM12C
[3] = test system: HT-29
Procedure: as §1, §2
TABLE 9 description. HT-29 CRC cell microarray analysis. HT-29 colorectal cancer cells were treated with 1 μM elraglusib for 24 hours and treated versus untreated control samples were compared in triplicate via microarray analysis (N=3). Table showing differentially expressed genes of interest with their corresponding fold changes, p values, descriptions, and functions. […] Genes are ordered by fold change and were calculated using a fold change cutoff of >1.5, <−1.5, and a minimum p value of <0.05.

[4] = 24 hours, FC >1.5, <−1.5, p<0.05
[5] = of 3124 genes in three cell lines

In the case of `Cn1cc(C2=C(c3coc4ccc(F)cc34)C(=O)NC2=O)c2cc3c(cc21)OCO3` [elraglusib], the “differentially expressed genes post-treatment” value [1, 4] was 340, the “differentially expressed genes (Venn diagram)” value (from here on “differentially … (Venn diagram)”) [1, 5] was 241 and the “downregulated genes in VEGFA-VEGFR2 pathway” value (“downregulated genes” below) ([1]; post-elraglusib) was 29. The “differentially expressed genes post-treatment” value [2, 4] was 1032, the “differentially … (Venn diagram)” value [2, 5] was 549 and the “downregulated genes” value ([2]; post-elraglusib) was “forty-eight”. The “differentially expressed genes post-treatment” value [3, 4] was 2307, the “differentially … (Venn diagram)” value [3, 5] was 1805 and the “downregulated genes” value ([3]; post-elraglusib) was 37.

Reference: US20240041830A1, “CIRCULATING BIOMARKERS OF RESPONSE TO PD-1/PD-L1 BLOCKADE AND GSK-3 INHIBITION” (Brown University, priority 2022, published 2024)
